Measurements reported in PubChem BioAssay AID504774 (Drosophila RNAi Screening Center, 2011)
The deposit covers about 23,000 reagents; shown is a random part of those that have a named target and a result. 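Values are quantile-normalised luminescence on an arbitrary scale; higher means more cells surviving MMS.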 The numbers tell different reagents against one gene apart.

Assay: 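Fly genes whose loss alters survival after alkylation damage to DNA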 (primary screen)
System: Drosophila Kc167 cells
Knock-down reagent: long dsRNA against Drosophila genes, about 0.25 µg dsRNA per well
Time to read-out: about 6 days: 3 days knock-down, then 3 days with or without MMS
Treatment: methyl methanesulphonate 0.004% (w/v) for 3 days after knock-down
Read-out: 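Viability in wells given MMS, read as ATP luminescence, normalised by quantiles plate by plate and averaged across replicates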
Scale: mean viability with MMS and viability with MMS: higher = more surviving cells after MMS

predicted target | dsRNA no. | mean viability with MMS | viability with MMS, replicate 1 | viability with MMS, replicate 2
CG17127 | 1 | 3.62e6 | 4.25e6 | 3.96e6
Trf4-2 | 1 | 3.70e6 | 4.23e6 | 4.15e6
Dlip2 | 1 | 3.58e6 | 4.04e6 | 4.06e6
Cdlc2 | 1 | 3.46e6 | 3.73e6 | 4.05e6
CG31647 (retired record) | 1 | 3.54e6 | 4.00e6 | 4.02e6
CG18128 | 1 | 3.53e6 | 3.91e6 | 4.10e6
RpL5 | 1 | 2.94e6 | 3.64e6 | 3.59e6
Ir47a | 1 | 3.63e6 | 4.05e6 | 4.12e6
CG14421 | 1 | 3.53e6 | 3.86e6 | 4.15e6
Bre1 | 1 | 3.48e6 | 3.91e6 | 3.97e6
CG5897 | 1 | 3.56e6 | 4.10e6 | 3.97e6
CG13711 | 1 | 3.58e6 | 4.06e6 | 4.09e6
Tim17b1 | 1 | 3.62e6 | 4.08e6 | 4.12e6
CG43775 | 1 | 3.66e6 | 4.04e6 | 4.25e6
PGRP-SB2 | 1 | 3.48e6 | 3.93e6 | 3.93e6
CG11367 | 1 | 3.73e6 | 4.22e6 | 4.11e6
CG10252 | 1 | 3.37e6 | 3.84e6 | 3.82e6
mRpL14 | 1 | 3.52e6 | 3.92e6 | 4.07e6
SLO2 | 1 | 2.92e6 | 3.59e6 | 3.61e6
SLO2 | 2 | 3.70e6 | 4.15e6 | 4.12e6
SLO2 | 3 | 3.49e6 | 4.00e6 | 3.94e6
SLO2 | 4 | 3.54e6 | 4.05e6 | 3.97e6
SLO2 | 5 | 2.99e6 | 3.63e6 | 3.64e6
SLO2 | 6 | 3.28e6 | 3.87e6 | 3.56e6
pim | 1 | 3.29e6 | 3.64e6 | 3.75e6
CG12129 | 1 | 3.71e6 | 4.09e6 | 4.31e6
CR31427 | 1 | 3.53e6 | 4.04e6 | 3.97e6
Eip75B | 1 | 3.26e6 | 3.67e6 | 3.72e6
Eip75B | 2 | 3.46e6 | 3.99e6 | 3.88e6
CG15905 | 1 | 3.63e6 | 4.19e6 | 4.01e6
CG40245 (retired record) | 1 | 2.36e6 | 4.07e6 | 3.95e6
GV1 | 1 | 3.76e6 | 4.22e6 | 4.17e6
CG13047 | 1 | 3.64e6 | 4.01e6 | 4.22e6
Acsx4 | 1 | 3.36e6 | 3.80e6 | 3.86e6
CG10307 | 1 | 3.36e6 | 3.69e6 | 3.69e6
CG18223 | 1 | 3.34e6 | 3.80e6 | 3.72e6
mmy | 1 | 3.42e6 | 3.77e6 | 3.88e6
CG9875 | 1 | 3.81e6 | 4.22e6 | 4.34e6
CG13908 (retired record) | 1 | 3.46e6 | 3.90e6 | 3.96e6
CG11403 | 1 | 3.19e6 | 3.72e6 | 3.77e6
CG5039 | 1 | 3.73e6 | 4.14e6 | 4.30e6
CG34214 | 1 | 3.74e6 | 4.12e6 | 4.32e6
Zip42C.1 | 1 | 3.39e6 | 3.70e6 | 3.92e6
CG7016 | 1 | 3.37e6 | 3.84e6 | 3.73e6
RalGPS | 1 | 3.46e6 | 3.94e6 | 3.90e6
mRpS31 | 1 | 3.50e6 | 4.01e6 | 3.93e6
Bcat | 1 | 3.61e6 | 4.10e6 | 4.06e6
CG12481 | 1 | 3.65e6 | 4.18e6 | 4.07e6
CG9135 | 1 | 3.67e6 | 4.15e6 | 4.21e6
Pcf11 | 1 | 2.92e6 | 3.51e6 | 3.51e6
CG11584 | 1 | 3.63e6 | 4.06e6 | 4.15e6
CG4854 | 1 | 3.54e6 | 4.17e6 | 3.86e6
BORCS6 | 1 | 3.61e6 | 4.08e6 | 4.07e6
CG12679 | 1 | 3.49e6 | 4.03e6 | 3.91e6
CG14418 | 1 | 3.33e6 | 3.83e6 | 3.75e6
CG14418 | 2 | 3.51e6 | 3.95e6 | 4.05e6
l(3)05822 | 1 | 3.70e6 | 4.14e6 | 4.19e6
bru3 | 1 | 3.46e6 | 3.79e6 | 4.08e6
bru3 | 2 | 3.47e6 | 3.76e6 | 4.11e6
bru3 | 3 | 3.50e6 | 3.91e6 | 4.02e6
bru3 | 4 | 3.47e6 | 3.98e6 | 3.95e6
CG12279 | 1 | 3.41e6 | 3.88e6 | 3.90e6
CG3106 | 1 | 3.22e6 | 4.22e6 | 3.96e6
CG30116 | 1 | 3.59e6 | 4.16e6 | 3.99e6
CG30116 | 2 | 3.61e6 | 4.14e6 | 4.02e6
sut4 | 1 | 3.60e6 | 4.16e6 | 4.00e6
Cdk7 | 1 | 3.45e6 | 3.86e6 | 3.98e6
Cdk7 | 2 | 3.62e6 | 4.07e6 | 4.14e6

Targets above whose target name starts with B or b (7):
predicted target | dsRNA no. | mean viability with MMS | viability with MMS, replicate 1 | viability with MMS, replicate 2
Bre1 | 1 | 3.48e6 | 3.91e6 | 3.97e6
Bcat | 1 | 3.61e6 | 4.10e6 | 4.06e6
BORCS6 | 1 | 3.61e6 | 4.08e6 | 4.07e6
bru3 | 1 | 3.46e6 | 3.79e6 | 4.08e6
bru3 | 2 | 3.47e6 | 3.76e6 | 4.11e6
bru3 | 3 | 3.50e6 | 3.91e6 | 4.02e6
bru3 | 4 | 3.47e6 | 3.98e6 | 3.95e6
